# Reference: PubChem BioAssay AID504764 (Drosophila RNAi Screening Center, 2011)
# Screen: 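Knock-downs that raise or lower a Notch target reporter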 (primary screen)
# Cell system: Drosophila Kc167 cells
# Reagent: long dsRNA against Drosophila genes
# Time to read-out: about 5 days (4 days dsRNA, then 24 h after transfection)
# Conditions: transfection of constitutively active membrane-tethered Notch lacking the extracellular domain, read 24 h later
# Measurement: 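Light from a Notch-responsive E(spl)m3 luciferase reporter under active Notch, with control-promoter and no-Notch reporter wells to normalise; raw counts from paired wells a and b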
# Scale: induced reporter light, run 1, well a and induced reporter light, run 1, well b: higher = more light from the Notch target reporter with active Notch; control promoter light, run 1, well a and control promoter light, run 1, well b: higher = more light from the viral control promoter (cell number, transfection, viability); uninduced reporter light, run 1, well a: higher = more light from the Notch target reporter without active Notch
# Active means: 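Hit if the duplicate-averaged log2 ratio of induced to control-promoter light gives a plate-wise z beyond ±2, or induced to uninduced beyond ±1.8; weak-control or discordant-duplicate wells dropped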
# Meaning of the calls: active = modifier hit (raised or lowered Notch signal); inactive = not a hit
# The deposit covers about 22,000 reagents; this is a random part of those with a known target gene and a result. In the full data, 403 (1.9%) got an active call. 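Unnormalised raw counts per well; ratio z-scores behind the hit calls and whether each hit raises or lowers signal are not deposited.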 The numbers tell different reagents against one gene apart. Names joined by + are all predicted targets of the reagent. Reagent sequences are not shown. Not given: the amount of reagent.
Target gene,dsRNA no.,"induced reporter light, run 1, well a","induced reporter light, run 1, well b","control promoter light, run 1, well a","control promoter light, run 1, well b","uninduced reporter light, run 1, well a",activity call
zip (GeneID 38001),1,1.58e5,1.75e5,1.74e5,1.55e5,12475,inactive
Bacc (GeneID 33462),1,1.21e5,1.16e5,1.07e5,60190,9590,inactive
CG15432 (GeneID 33647),1,1.07e5,67800,89505,73275,7370,inactive
CG31624 (GeneID 35393),1,70775,93765,60470,63415,4950,inactive
eRF3 (GeneID 34658),1,60890,80355,83660,85455,7590,inactive
CG11227 (GeneID 33071),1,90905,89120,1.08e5,1.00e5,8875,inactive
ND-51L2 (GeneID 36695),1,92415,94380,1.06e5,95695,7005,inactive
CG14427 (GeneID 31651),1,1.79e5,1.76e5,4.22e5,3.23e5,12175,inactive
Pepck1 (GeneID 37131),1,28825,28470,25955,37495,2765,inactive
gro (GeneID 43162),1,2.89e5,3.58e5,3.18e5,3.33e5,18650,inactive
CG15368 (GeneID 31861),1,40365,34740,48580,56175,3660,inactive
COX7B (GeneID 50266),1,2.31e5,2.36e5,2.54e5,2.46e5,6220,inactive
GstE9 (GeneID 246581),1,1.24e5,95235,1.36e5,1.53e5,9485,inactive
Cad96Cb (GeneID 43033),1,1.50e5,1.34e5,1.73e5,1.67e5,11025,inactive
Cad96Cb (GeneID 43033),2,1.27e5,98175,1.58e5,1.83e5,11995,inactive
mrj (GeneID 36797),1,,,,,,inactive
CG10514 (GeneID 43052),1,1.38e5,1.30e5,1.92e5,1.88e5,11830,inactive

Entries listed so far whose target name begins with G or g:
Target gene,dsRNA no.,"induced reporter light, run 1, well a","induced reporter light, run 1, well b","control promoter light, run 1, well a","control promoter light, run 1, well b","uninduced reporter light, run 1, well a",activity call
gro (GeneID 43162),1,2.89e5,3.58e5,3.18e5,3.33e5,18650,inactive
GstE9 (GeneID 246581),1,1.24e5,95235,1.36e5,1.53e5,9485,inactive

Continued.
Target gene,dsRNA no.,"induced reporter light, run 1, well a","induced reporter light, run 1, well b","control promoter light, run 1, well a","control promoter light, run 1, well b","uninduced reporter light, run 1, well a",activity call
Spc25 (GeneID 41585),1,2.31e5,2.41e5,1.97e5,2.14e5,17400,inactive
Marcal1 (GeneID 33709),1,65085,52145,51035,47065,3105,inactive
Mst57Da + alpha4GT2,1,2.14e5,2.13e5,2.12e5,2.37e5,18375,inactive
CG33307 (GeneID 2768914),1,1.24e5,1.11e5,1.79e5,1.42e5,10760,inactive
NPF (GeneID 42018),1,2.36e5,2.50e5,2.44e5,2.56e5,19020,inactive
CG17270 (GeneID 42462),1,1.68e5,1.88e5,1.96e5,2.24e5,14955,inactive
CG42542 (GeneID 8674000),1,1.62e5,1.43e5,1.55e5,1.19e5,10880,inactive
RhoGEF64C (GeneID 38578),1,1.37e5,1.42e5,92320,45620,12128,inactive
RhoGEF64C (GeneID 38578),2,89455,82155,41905,37980,12990,inactive
CG34056 (GeneID 38106),1,1.22e5,1.50e5,3.47e5,2.55e5,6460,inactive
Pp2B-14D (GeneID 32624),1,58185,39770,54545,43465,8770,inactive
Dpit47 (GeneID 35565),1,1.59e5,1.64e5,1.51e5,1.27e5,11225,inactive
cn (GeneID 35724),1,1.46e5,1.74e5,1.91e5,1.56e5,13332,inactive
Ibf1 (GeneID 41103),1,65730,54020,45620,49330,2660,inactive
fd96Cb (GeneID 43011),1,1.41e5,1.61e5,1.97e5,1.93e5,12675,inactive
CG3815 (GeneID 31571),1,2.09e5,1.85e5,2.10e5,1.99e5,14815,inactive
Dip-B (GeneID 48450),1,1.11e5,1.31e5,91755,86190,10092,inactive
CG14565 (GeneID 40423),1,1.42e5,1.25e5,1.29e5,1.25e5,10380,inactive
park + Targ3,1,1.07e5,1.02e5,71725,85770,8035,inactive
CR31822 (GeneID 10178843),1,88660,77320,63820,73575,6475,inactive
CrebA (GeneID 39682),1,1.45e5,1.44e5,82955,89970,11205,inactive
Ttc1 (GeneID 41993),1,2.23e5,2.43e5,2.32e5,2.20e5,18000,inactive
CG7514 (GeneID 38571),1,1.58e5,1.65e5,1.38e5,2.10e5,8330,inactive
CG6154 (GeneID 43184),1,1.37e5,1.36e5,2.33e5,1.96e5,13125,inactive
CG15353 (GeneID 50191),1,1.29e5,1.35e5,1.03e5,73310,9720,inactive
Sirup (GeneID 34089),1,1.54e5,1.96e5,90350,1.05e5,20755,inactive
Cpr72Eb (GeneID 39815),1,3.33e5,1.79e5,2.70e5,2.37e5,9515,inactive
CadN (GeneID 35070),1,1.32e5,1.56e5,1.29e5,1.60e5,10620,inactive
CG12728 (GeneID 31526),1,2.25e5,1.85e5,2.85e5,2.31e5,16692,inactive
Npc2f (GeneID 42864),1,1.67e5,1.92e5,2.06e5,2.23e5,15888,inactive
CG31313 (GeneID 318677),1,1.03e5,77490,96370,1.02e5,7432,inactive
CG42327 (GeneID 41401),1,61080,62255,45310,41465,3250,inactive
CG42327 (GeneID 41401),2,1.11e5,1.03e5,1.49e5,1.38e5,7940,inactive
